# The list does not hold the whole screen: it gathers tests that were run many times, whatever their T/C, doses with no T/C, and many T/C values between a quarter and a half above the control. Other doses and runs of a compound stand elsewhere. T/C gives the treated animals as a percentage of the vehicle group. Some entries give survivors of the animals treated and no T/C: the source holds a T/C of zero for them, seemingly a mark for toxic or unscored doses. Some doses without a T/C left all or most animals alive at the check, yet need not have been tolerated: survival well below the control is almost never listed, so the zero probably covers shortened survival too. Counts of survivors are from the toxicity check (mostly the fifth day) where no day follows; animals may have died later. Schedule codes are those of the source, read here as Q, the interval in days (D) or hours (H), X, the number of doses. Some entries hold several experiments; the values are given in rising order. Some schedule codes hold Z or #, which are not explained here. Counts like (3×) count equal records among those shown. Where survival is the endpoint, this PubChem deposit counts one and a half times the control or more as active, and values a quarter to a half above the control carry no call in these data; other NCI protocols may use other cut-offs. Some T/C values carry the count of animals alive at the toxicity check (mostly the fifth day); where none is given, no animal had died by that day.
# System: B6C3F1 mice, intracerebral ependymoblastoma, median survival T/C
# Assay: NCI In Vivo Anticancer Drug Screen. Data for tumor model Ependymoblastoma (intracerebral) in B6C3F1 mice
# Conditions: T/C endpoint: median survival time, higher T/C = longer survival
# Method: The antitumor activity of compounds was measured in mice bearing transplantable tumors. Survival or tumor size were measured and the results are expressed as the measurement made in the treated group (T) divided by the measurement made in the vehicle treated control group (C). The tumor model used in this assay is Ependymoblastoma (intracerebral) in B6C3F1 mice
# [1] = dose: 128.0 mg/kg/injection, schedule: Q01DX001 (ip), vehicle: saline
# [2] = dose: 256.0 mg/kg/injection, schedule: Q01DX001 (ip), vehicle: saline
# [3] = dose: 512.0 mg/kg/injection, schedule: Q01DX001 (ip), vehicle: saline
# [4] = dose: 64.0 mg/kg/injection, schedule: Q01DX001 (ip), vehicle: saline
# [5] = dose: 256.0 mg/kg/injection, schedule: Q01DX005 (ip), vehicle: saline
# [6] = dose: 1600.0 mg/kg/injection, schedule: Q01DX005 (ip), vehicle: saline
structure (smiles),measurement,setting,value
Nc1n[nH]c(N)n1,T/C,[1],"92 [survivors not given], 93 [survivors not given], 105 [9 of 10 alive], 106 % of control [survivors not given]"
same,T/C,[2],"94 [survivors not given], 100 [survivors not given], 105, 106 % of control [survivors not given]"
same,T/C,[3],"96 [survivors not given], 100 [survivors not given], 104 [survivors not given], 105 % of control"
same,T/C,"dose: 1024.0 mg/kg/injection, schedule: Q01DX001 (ip), vehicle: saline","100 [survivors not given], 104 [survivors not given], 105 [survivors not given], 109 % of control"
Cc1ncc(CNC(=O)N(CCCl)N=O)c(N)n1,T/C,"dose: 4.0 mg/kg/injection, schedule: Q01DX001 (ip), vehicle: saline","101, 102, 107, 110 (2×), 114 % of control"
same,T/C,"dose: 8.0 mg/kg/injection, schedule: Q01DX001 (ip), vehicle: saline","101 (2×), 114, 116, 117, 128 % of control [9 of 10 alive]"
same,survivor count,"dose: 12.5 mg/kg/injection, schedule: Q01DX009 (ip), vehicle: Klucel (hydroxypropylcellulose) (HPC)",10 of 10
same,T/C,"dose: 16.0 mg/kg/injection, schedule: Q01DX001 (ip), vehicle: saline","113, 118, 121, 125, 130, 131 % of control [8 of 10 alive]"
same,T/C,"dose: 16.0 mg/kg/injection, schedule: Q01DX001 (ip), vehicle: water",148 % of control
same,survivor count,"dose: 25.0 mg/kg/injection, schedule: Q01DX009 (ip), vehicle: Klucel (hydroxypropylcellulose) (HPC)",10 of 10
same,T/C,"dose: 32.0 mg/kg/injection, schedule: Q01DX001 (ip), vehicle: saline","175, 179, 181, 185, 230 [9 of 10 alive], 250 % of control"
same,survivor count,"dose: 50.0 mg/kg/injection, schedule: Q01DX009 (ip), vehicle: Klucel (hydroxypropylcellulose) (HPC)",10 of 10
same,T/C,[4],"92, 165, 254, 300 % of control (2×)"
same,survivor count,[4],10 of 10
same,survivor count,"dose: 64.0 mg/kg/injection, schedule: Q01DX001 (ip), vehicle: water",9 of 10 and 10 of 10
same,survivor count,"dose: 100.0 mg/kg/injection, schedule: Q01DX009 (ip), vehicle: Klucel (hydroxypropylcellulose) (HPC)",4 of 10
same,survivor count,[1],4 of 10 and 10 of 10
same,survivor count,"dose: 128.0 mg/kg/injection, schedule: Q01DX001 (ip), vehicle: water",8 of 10
same,survivor count,"dose: 200.0 mg/kg/injection, schedule: Q01DX009 (ip), vehicle: Klucel (hydroxypropylcellulose) (HPC)",0 of 10
same,survivor count,[2],0 of 10 and 10 of 10
same,survivor count,"dose: 256.0 mg/kg/injection, schedule: Q01DX001 (ip), vehicle: water",2 of 10 and 4 of 10
same,survivor count,"dose: 400.0 mg/kg/injection, schedule: Q01DX009 (ip), vehicle: Klucel (hydroxypropylcellulose) (HPC)",0 of 10
O=[N+]([O-])O.[Ga],T/C,[4],"95 [survivors not given], 103, 106 [survivors not given], 113 % of control [survivors not given]"
same,T/C,[1],"100 [survivors not given], 105, 106 [survivors not given], 113 % of control [survivors not given]"
same,T/C,[2],"99, 99 [survivors not given], 104 % of control [survivors not given]"
same,survivor count,[5],5 of 10
same,T/C,[3],93 [survivors not given] and 100 % of control [survivors not given]
same,survivor count,[3],5 of 10
C[C@]12C=CC(=O)C=C1CC[C@@H]1[C@@H]2CC[C@]2(C)OC(=O)CC[C@@H]12,survivor count,"dose: 256.0 mg/kg/injection, schedule: Q01DX005 (ip), vehicle: Klucel (hydroxypropylcellulose) (HPC)",0 of 6
same,survivor count,"dose: 256.0 mg/kg/injection, schedule: Q01DX005 (ip), vehicle: saline with Tween-80",5 of 10
same,survivor count,"dose: 512.0 mg/kg/injection, schedule: Q01DX005 (ip), vehicle: Klucel (hydroxypropylcellulose) (HPC)",0 of 6 (2×)
same,survivor count,"dose: 512.0 mg/kg/injection, schedule: Q01DX005 (ip), vehicle: saline with Tween-80",3 of 10 and 6 of 10
CNc1nc(N(C)C)nc(N(C)C)n1,survivor count,"dose: 32.0 mg/kg/injection, schedule: Q01DX005 (ip), vehicle: saline",7 of 10
same,survivor count,[5],2 of 10
Cc1cnc(/C=N\NC(N)=S)c2cccc(N)c12,survivor count,"dose: 200.0 mg/kg/injection, schedule: Q01DX005 (ip), vehicle: saline with Tween-80",4 of 10
CN1c2c(nc(N)[nH]c2=O)NCC1CCNc1ccc(C(=O)NC(CCC(=O)O)C(=O)O)cc1 (stereo unspecified),T/C,"dose: 100.0 mg/kg/injection, schedule: Q01DX005 (ip), vehicle: saline","99, 100, 104, 112 % of control"
same,T/C,"dose: 200.0 mg/kg/injection, schedule: Q01DX005 (ip), vehicle: saline","93, 106, 109, 110 % of control [9 of 10 alive]"
same,T/C,"dose: 200.0 mg/kg/injection, schedule: Q12HX018 (ip), vehicle: saline",127 % of control
same,T/C,"dose: 400.0 mg/kg/injection, schedule: Q01DX005 (ip), vehicle: saline","110, 115, 116, 117 % of control"
same,survivor count,"dose: 400.0 mg/kg/injection, schedule: Q01DX009 (ip), vehicle: saline",8 of 10
same,survivor count,"dose: 400.0 mg/kg/injection, schedule: Q12HX018 (ip), vehicle: saline",10 of 10
same,survivor count,"dose: 400.0 mg/kg/injection, schedule: Q#ADX018 (ip), vehicle: saline",9 of 10
same,T/C,"dose: 800.0 mg/kg/injection, schedule: Q01DX005 (ip), vehicle: saline","107, 107 [9 of 10 alive], 109 [9 of 10 alive], 116 % of control"
same,survivor count,"dose: 800.0 mg/kg/injection, schedule: Q12HX018 (ip), vehicle: saline",10 of 10
same,survivor count,"dose: 800.0 mg/kg/injection, schedule: Q#A X018 (ip), vehicle: saline",10 of 10
same,survivor count,"dose: 800.0 mg/kg/injection, schedule: Q#ADX018 (ip), vehicle: saline",10 of 10
same,T/C,[6],"107 [9 of 10 alive], 119, 135 % of control"
same,survivor count,[6],9 of 10
same,survivor count,"dose: 1600.0 mg/kg/injection, schedule: Q01DX009 (ip), vehicle: saline",10 of 10
same,survivor count,"dose: 1600.0 mg/kg/injection, schedule: Q12HX018 (ip), vehicle: saline",9 of 10
same,survivor count,"dose: 1600.0 mg/kg/injection, schedule: Q#A X018 (ip), vehicle: saline",10 of 10

# Source: PubChem BioAssay AID226 (DTP/NCI, 2004)
